{"source": "paper doi:10.1101/2023.02.22.529553", "binders": {"B1": {"name": "S. pistillata STING1 cyclic dinucleotide binding domain (domain or fragment, UniProt A0A2B4SJD2 181-376)", "chain": "NVADGLAWSYYFGYLRLVLPRLELRISESEYFRHKITDRKLFILLPKTCFTCDDIEQADSRVKWVGNLPESKINRGGIKERSYKHAVHEIVMPFPDGTEEKYHFIVEYATPLMSLYDMSRFTDAQLTGSERDHQVVLFIRKLTEILGKSEECKGRYELIPFSGDEDKNKIADILVALHNNANIMVDEEAEVSIPTQ"}, "B2": {"name": "S. pistillata STING3 cyclic dinucleotide binding domain (domain or fragment, UniProt A0A2B4SES9 170-354)", "chain": "NVADGFAWNYYFGYLKLVLPRLEAQIAKSSEFRYKITKKKLYILVPKTCYVYDNIADADPRVTWAGDLTPCKINRGGIKERIYKQAVYRVAMTDKHEYFFILEYASNLMSLYDMSLHEDAPLSRQERDDQVVLFIRKLREILEGCKECRGKCEIVPISGDEKSKIADVLVAIHNATQVESDEADL"}}, "key": {"[1]": {"target": "S. pistillata STING1 cyclic dinucleotide binding domain (S. pistillata)", "assay": "crystal structure; hanging-drop vapor diffusion at 18°C; purified STING at 5 mg/mL in 20 mM HEPES-KOH pH 7.5, 75 mM KCl, 1 mM TCEP with 0.5 mM cyclic dinucleotide (Sp-STING1 with 2′3′-cGAMP, Sp-STING3 with 3′3′-cGAMP); homodimer seen in the crystal; both purified"}, "[2]": {"target": "S. pistillata STING3 cyclic dinucleotide binding domain (S. pistillata)", "assay": "crystal structure; hanging-drop vapor diffusion at 18°C; purified STING at 5 mg/mL in 20 mM HEPES-KOH pH 7.5, 75 mM KCl, 1 mM TCEP with 0.5 mM cyclic dinucleotide (Sp-STING1 with 2′3′-cGAMP, Sp-STING3 with 3′3′-cGAMP); homodimer seen in the crystal; both purified"}}, "note": "No constants are given. Whether binding was seen depends on the method and setting. Some binding calls cover weakened binding; strength is not graded here."}
{"binder": "B1", "values": [{"measurement": "binding", "setting": "[1]", "value": "binds"}]}
{"binder": "B2", "values": [{"measurement": "binding", "setting": "[2]", "value": "binds"}]}
